This passage reports binding results from PMC11152120.

By UniProt entry, the sequences of proteins in these tests, tags left out. Residues count along the entry.
UniProt P16070, residues 21-742: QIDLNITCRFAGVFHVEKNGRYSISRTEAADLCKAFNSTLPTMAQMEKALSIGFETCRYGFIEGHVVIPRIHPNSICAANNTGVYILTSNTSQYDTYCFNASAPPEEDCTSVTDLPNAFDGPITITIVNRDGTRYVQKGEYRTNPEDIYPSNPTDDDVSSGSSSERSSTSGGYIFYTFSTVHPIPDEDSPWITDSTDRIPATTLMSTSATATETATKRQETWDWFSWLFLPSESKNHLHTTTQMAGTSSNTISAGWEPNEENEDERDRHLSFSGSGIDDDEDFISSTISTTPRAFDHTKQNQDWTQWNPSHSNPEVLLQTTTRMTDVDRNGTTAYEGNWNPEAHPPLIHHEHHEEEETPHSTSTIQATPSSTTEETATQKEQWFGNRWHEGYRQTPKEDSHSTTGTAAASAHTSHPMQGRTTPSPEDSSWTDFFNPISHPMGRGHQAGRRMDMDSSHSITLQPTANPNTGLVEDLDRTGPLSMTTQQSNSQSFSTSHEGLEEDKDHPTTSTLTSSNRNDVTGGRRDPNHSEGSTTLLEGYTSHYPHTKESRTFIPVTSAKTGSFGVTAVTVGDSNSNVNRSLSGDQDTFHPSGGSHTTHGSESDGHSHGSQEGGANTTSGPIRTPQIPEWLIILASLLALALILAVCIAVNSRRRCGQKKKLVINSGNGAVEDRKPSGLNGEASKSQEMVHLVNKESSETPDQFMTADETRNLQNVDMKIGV
UniProt Q05397: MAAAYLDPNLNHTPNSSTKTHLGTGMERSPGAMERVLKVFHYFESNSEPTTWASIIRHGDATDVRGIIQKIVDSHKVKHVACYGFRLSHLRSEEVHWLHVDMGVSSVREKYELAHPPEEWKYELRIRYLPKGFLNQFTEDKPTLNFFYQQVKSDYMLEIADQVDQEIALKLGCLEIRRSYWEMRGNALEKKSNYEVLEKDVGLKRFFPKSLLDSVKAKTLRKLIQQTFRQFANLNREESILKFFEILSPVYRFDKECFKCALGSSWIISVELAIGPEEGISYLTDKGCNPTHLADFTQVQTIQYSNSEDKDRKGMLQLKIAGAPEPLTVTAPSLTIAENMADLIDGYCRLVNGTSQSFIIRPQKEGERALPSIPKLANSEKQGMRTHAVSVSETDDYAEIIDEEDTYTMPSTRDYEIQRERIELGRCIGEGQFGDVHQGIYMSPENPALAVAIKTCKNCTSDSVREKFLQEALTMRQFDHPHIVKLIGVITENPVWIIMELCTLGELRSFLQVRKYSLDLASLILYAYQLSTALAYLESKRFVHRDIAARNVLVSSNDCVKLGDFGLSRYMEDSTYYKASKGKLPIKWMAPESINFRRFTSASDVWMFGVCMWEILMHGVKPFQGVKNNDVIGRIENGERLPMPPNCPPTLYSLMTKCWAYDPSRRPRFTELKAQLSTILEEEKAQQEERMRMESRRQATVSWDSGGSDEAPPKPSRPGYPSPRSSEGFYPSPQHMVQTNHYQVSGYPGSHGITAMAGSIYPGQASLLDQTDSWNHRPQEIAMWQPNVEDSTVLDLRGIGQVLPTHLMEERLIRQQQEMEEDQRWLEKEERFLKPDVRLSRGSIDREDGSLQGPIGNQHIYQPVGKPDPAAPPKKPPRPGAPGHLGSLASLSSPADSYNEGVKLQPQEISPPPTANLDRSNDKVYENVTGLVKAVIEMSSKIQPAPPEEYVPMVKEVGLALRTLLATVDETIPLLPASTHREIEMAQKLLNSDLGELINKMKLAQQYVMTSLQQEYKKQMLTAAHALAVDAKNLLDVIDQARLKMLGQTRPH

In assay [1] the target is T1, Hyaluronan-mediated motility receptor (HMMR), endogenous (human (endogenous in LM3 and Huh7)) (UniProt O75330).
T1 sequence: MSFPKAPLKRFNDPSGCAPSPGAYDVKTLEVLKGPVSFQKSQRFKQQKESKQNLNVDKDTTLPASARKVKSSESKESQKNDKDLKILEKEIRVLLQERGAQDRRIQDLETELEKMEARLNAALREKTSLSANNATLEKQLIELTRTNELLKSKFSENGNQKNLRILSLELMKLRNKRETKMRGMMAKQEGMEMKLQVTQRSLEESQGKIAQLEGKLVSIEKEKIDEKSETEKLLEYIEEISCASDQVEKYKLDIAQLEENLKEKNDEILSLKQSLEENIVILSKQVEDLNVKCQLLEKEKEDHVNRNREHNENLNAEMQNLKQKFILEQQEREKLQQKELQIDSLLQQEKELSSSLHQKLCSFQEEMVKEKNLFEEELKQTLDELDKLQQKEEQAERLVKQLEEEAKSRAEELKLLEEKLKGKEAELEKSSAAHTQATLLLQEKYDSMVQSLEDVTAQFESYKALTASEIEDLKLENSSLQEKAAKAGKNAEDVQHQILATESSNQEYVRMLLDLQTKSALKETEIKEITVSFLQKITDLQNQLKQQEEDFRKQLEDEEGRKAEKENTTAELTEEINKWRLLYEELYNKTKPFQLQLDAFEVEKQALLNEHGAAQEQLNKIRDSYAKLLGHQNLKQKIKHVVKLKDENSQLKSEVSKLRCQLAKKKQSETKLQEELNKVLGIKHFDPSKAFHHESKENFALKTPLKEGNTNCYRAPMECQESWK
In words: co-IP; anti-HMMR immunoprecipitation from the membrane component of LM3 and Huh7 cells (WT).

Assay [2] deals with T1, Hyaluronan-mediated motility receptor (HMMR), endogenous (human (endogenous in LM3 and Huh7)). The assay is described as follows: co-IP; endogenous proteins from LM3 and Huh7 whole-cell lysates (RIPA buffer with protease inhibitors); antibody overnight, Protein A/G agarose 4 h at 4°C, four washes, immunoblot; also in shControl/shHMMR and WT/CD44-ko LM3 cells. A general note: Immunoblotting shows a protein as a band on a membrane.

For assay [3], the target named is CD44, endogenous (human (endogenous in LM3 and Huh7)) (UniProt P16070). Described as above.

Results are given in words; binding and its absence hold for the method and conditions named. Binding seen in cells or lysates may run through a third protein. Some entries that bind do so weakly or less than the wild type.

In the case of “CD44, endogenous (from UniProt P16070 21-742) (receptor)”, the binding result in assay [1] and in assay [2] was “binds” in each case.
Turning to “FAK, endogenous (from UniProt Q05397 1-1052) (enzyme)”, the binding result in assay [3] is “binds”.

B1: Hyaluronan-mediated motility receptor (HMMR), endogenous (protein, UniProt O75330 1-724)
chain: MSFPKAPLKRFNDPSGCAPSPGAYDVKTLEVLKGPVSFQKSQRFKQQKESKQNLNVDKDTTLPASARKVKSSESKESQKNDKDLKILEKEIRVLLQERGAQDRRIQDLETELEKMEARLNAALREKTSLSANNATLEKQLIELTRTNELLKSKFSENGNQKNLRILSLELMKLRNKRETKMRGMMAKQEGMEMKLQVTQRSLEESQGKIAQLEGKLVSIEKEKIDEKSETEKLLEYIEEISCASDQVEKYKLDIAQLEENLKEKNDEILSLKQSLEENIVILSKQVEDLNVKCQLLEKEKEDHVNRNREHNENLNAEMQNLKQKFILEQQEREKLQQKELQIDSLLQQEKELSSSLHQKLCSFQEEMVKEKNLFEEELKQTLDELDKLQQKEEQAERLVKQLEEEAKSRAEELKLLEEKLKGKEAELEKSSAAHTQATLLLQEKYDSMVQSLEDVTAQFESYKALTASEIEDLKLENSSLQEKAAKAGKNAEDVQHQILATESSNQEYVRMLLDLQTKSALKETEIKEITVSFLQKITDLQNQLKQQEEDFRKQLEDEEGRKAEKENTTAELTEEINKWRLLYEELYNKTKPFQLQLDAFEVEKQALLNEHGAAQEQLNKIRDSYAKLLGHQNLKQKIKHVVKLKDENSQLKSEVSKLRCQLAKKKQSETKLQEELNKVLGIKHFDPSKAFHHESKENFALKTPLKEGNTNCYRAPMECQESWK
Regarding B1, the binding result in assay [3] is listed as “binds”.
